No constants are given. Whether binding was seen depends on the method and setting. For some of these results: Binding can be weak; no strength is given. Sequences can lack the tags named with a protein.
B1: GST-Cep57 (195–500 amino acids) (domain or fragment, human, UniProt Q86XR8 195-500, looked up)
chain: EYNKLTTMQALAEKKMQELEAKLHEEEQERKRMQAKAAELQTGLETNRLIFEDKATPCVPNARRIKKKKSKPPEKKSSRNYFGAQPHYRLCLGDMPFVAGKSTSPSHAVVANVQLVLHLMKQHSKALCNDRVINSIPLAKQVSSRGGKSKKLSVTPPSSNGINEELSEVLQTLQDEFGQMSFDHQQLAKLIQESPTVELKDKLECELEALVGRMEAKANQITKVRKYQAQLEKQKLEKQKKELKATKKTLDEERNSSSRSGITGTTNKKDFMKLRPGEKRRKNLQLLKDMQSIQNSLQSSSLCWDY
notes: also called C terminus of Cep57; C-terminal Cep57; source: E. coli, purified (Glutathione Sepharose 4B); not shown: GST, N-terminal, kept
B2: Flag-Cep57 (natural protein, human, UniProt Q86XR8 1-500, looked up)
chain: MAAASVSAASGSHLSNSFAEPSRSNGSMVRHSSSPYVVYPSDKPFLNSDLRRSPSKPTLAYPESNSRAIFSALKNLQDKIRRLELERIQAEESVKTLSRETIEYKKVLDEQIQERENSKNEESKHNQELTSQLLAAENKCNLLEKQLEYMRNMIKHAEMERTSVLEKQVSLERERQHDQTHVQSQLEKLDLLEQEYNKLTTMQALAEKKMQELEAKLHEEEQERKRMQAKAAELQTGLETNRLIFEDKATPCVPNARRIKKKKSKPPEKKSSRNYFGAQPHYRLCLGDMPFVAGKSTSPSHAVVANVQLVLHLMKQHSKALCNDRVINSIPLAKQVSSRGGKSKKLSVTPPSSNGINEELSEVLQTLQDEFGQMSFDHQQLAKLIQESPTVELKDKLECELEALVGRMEAKANQITKVRKYQAQLEKQKLEKQKKELKATKKTLDEERNSSSRSGITGTTNKKDFMKLRPGEKRRKNLQLLKDMQSIQNSLQSSSLCWDY
notes: Cep57 (translokin), human; cDNA amplified from a HeLa cell cDNA library; also called purified Cep57 from HEK293T cells; source: HEK293T, purified (anti-Flag beads, 600 mM NaCl wash, eluted by 3 x Flag peptides); not shown: Flag, N-terminal, kept
B3: Flag-Mad1 (protein, UniProt Q9Y6D9 1-718)
chain: MEDLGENTMVLSTLRSLNNFISQRVEGGSGLDISTSAPGSLQMQYQQSMQLEERAEQIRSKSHLIQVEREKMQMELSHKRARVELERAASTSARNYEREVDRNQELLTRIRQLQEREAGAEEKMQEQLERNRQCQQNLDAASKRLREKEDSLAQAGETINALKGRISELQWSVMDQEMRVKRLESEKQELQEQLDLQHKKCQEANQKIQELQASQEARADHEQQIKDLEQKLSLQEQDAAIVKNMKSELVRLPRLERELKQLREESAHLREMRETNGLLQEELEGLQRKLGRQEKMQETLVGLELENERLLAKLQSWERLDQTMGLSIRTPEDLSRFVVELQQRELALKDKNSAVTSSARGLEKARQQLQEELRQVSGQLLEERKKRETHEALARRLQKRVLLLTKERDGMRAILGSYDSELTPAEYSPQLTRRMREAEDMVQKVHSHSAEMEAQLSQALEELGGQKQRADMLEMELKMLKSQSSSAEQSFLFSREEADTLRLKVEELEGERSRLEEEKRMLEAQLERRALQGDYDQSRTKVLHMSLNPTSVARQRLREDHSQLQAECERLRGLLRAMERGGTVPADLEAAAASLPSSKEVAELKKQVESAELKNQRLKEVFQTKIQEFRKACYTLTGYQIDITTENQYRLTSLYAEHPGDCLIFKATSPSGSKMQLLETEFSHTVGELIEVHLRRQDSIPAFLSSLTLELFSRQTVA
B4: Flag-Cep57-12A (protein, UniProt Q86XR8 1-500)
chain: MAAASVSAASGSHLSNSFAEPSRSNGSMVRHSSSPYVVYPSDKPFLNSDLRRSPSKPTLAYPESNSRAIFSALKNLQDKIRRLELERIQAEESVKTLSRETIEYKKVLDEQIQERENSKNEESKHNQELTSQLLAAENKCNLLEKQLEYMRNMIKHAEMERTSVLEKQVSLERERQHDQTHVQSQLEKLDLLEQEYNKLTTMQALAEKKMQELEAKLHEEEQERKRMQAKAAELQTGLETNRLIFEDKATPCVPNARRIKKKKSKPPEKKSSRNYFGAQPHYRLCLGDMPFVAGKSTSPSHAVVANVQLVLHLMKQHSKALCNDRVINSIPLAKQVSSRGGKSKKLSVTPPSSNGINEELSEVLQTLQDEFGQMSFDHQQLAKLIQESPTVELKDKLECELEALVGRMEAKANQITKVRKYQAQLEKQKLEAQAAELAATAATLDEERNSSSRSGITGTTNKKDFMALAPGEAAAANLQLLKDMQSIQNSLQSSSLCWDY

Key:
[1] = target: taxol-stabilized microtubules; test: co-sedimentation; purified Cep57 protein incubated with or without taxol-stabilized microtubules (1.0 μM) in BRB80 buffer; 100,000g for 10 min at 25 °C; supernatant and pellet; both purified
[2] = target: taxol-stabilized microtubules; test: co-sedimentation; GST-Cep57 (195-500; 0.1 μM) and Flag-Mad1 (0.05 μM) together, with or without taxol-stabilized microtubules (1.0 μM) in BRB80 buffer; supernatant and pellet; anti-Flag western blotting; both purified
[3] = target: taxol-stabilized microtubules; test: condition: Flag-Cep57-12A 0.05 μM, microtubules 1.0 μM; co-sedimentation; purified Cep57 protein incubated with or without taxol-stabilized microtubules (1.0 μM) in BRB80 buffer; 100,000g for 10 min at 25 °C; supernatant and pellet; both purified

Binder	binding [1]	also measured
B1	binds	–
B2	binds	–
B3	–	binding [2]: no binding (tested: Flag-Mad1 0.05 μM, microtubules 1.0 μM)
B4	–	binding [3]: no binding
